Experimental data taken from the supplement of paper PMC10849652.
Some of the results follow.

The chains behind the UniProt entries cited, without tags or fusion partners. Where a name states a change or a piece, a line headed by the entry shows the natural chain unless it says otherwise.
UniProt Q07812, whole entry, looked up: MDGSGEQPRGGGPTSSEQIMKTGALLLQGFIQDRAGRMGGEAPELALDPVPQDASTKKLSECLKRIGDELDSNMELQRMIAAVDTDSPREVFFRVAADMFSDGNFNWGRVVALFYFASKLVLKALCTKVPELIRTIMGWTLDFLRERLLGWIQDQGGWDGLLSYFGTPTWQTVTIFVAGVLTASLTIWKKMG
UniProt Q6QNY0: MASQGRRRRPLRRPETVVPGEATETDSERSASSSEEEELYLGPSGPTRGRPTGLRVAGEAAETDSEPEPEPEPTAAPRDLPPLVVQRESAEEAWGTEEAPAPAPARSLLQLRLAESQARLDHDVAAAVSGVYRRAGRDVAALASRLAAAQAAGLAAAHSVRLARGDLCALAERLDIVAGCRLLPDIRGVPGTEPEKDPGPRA
UniProt O75882: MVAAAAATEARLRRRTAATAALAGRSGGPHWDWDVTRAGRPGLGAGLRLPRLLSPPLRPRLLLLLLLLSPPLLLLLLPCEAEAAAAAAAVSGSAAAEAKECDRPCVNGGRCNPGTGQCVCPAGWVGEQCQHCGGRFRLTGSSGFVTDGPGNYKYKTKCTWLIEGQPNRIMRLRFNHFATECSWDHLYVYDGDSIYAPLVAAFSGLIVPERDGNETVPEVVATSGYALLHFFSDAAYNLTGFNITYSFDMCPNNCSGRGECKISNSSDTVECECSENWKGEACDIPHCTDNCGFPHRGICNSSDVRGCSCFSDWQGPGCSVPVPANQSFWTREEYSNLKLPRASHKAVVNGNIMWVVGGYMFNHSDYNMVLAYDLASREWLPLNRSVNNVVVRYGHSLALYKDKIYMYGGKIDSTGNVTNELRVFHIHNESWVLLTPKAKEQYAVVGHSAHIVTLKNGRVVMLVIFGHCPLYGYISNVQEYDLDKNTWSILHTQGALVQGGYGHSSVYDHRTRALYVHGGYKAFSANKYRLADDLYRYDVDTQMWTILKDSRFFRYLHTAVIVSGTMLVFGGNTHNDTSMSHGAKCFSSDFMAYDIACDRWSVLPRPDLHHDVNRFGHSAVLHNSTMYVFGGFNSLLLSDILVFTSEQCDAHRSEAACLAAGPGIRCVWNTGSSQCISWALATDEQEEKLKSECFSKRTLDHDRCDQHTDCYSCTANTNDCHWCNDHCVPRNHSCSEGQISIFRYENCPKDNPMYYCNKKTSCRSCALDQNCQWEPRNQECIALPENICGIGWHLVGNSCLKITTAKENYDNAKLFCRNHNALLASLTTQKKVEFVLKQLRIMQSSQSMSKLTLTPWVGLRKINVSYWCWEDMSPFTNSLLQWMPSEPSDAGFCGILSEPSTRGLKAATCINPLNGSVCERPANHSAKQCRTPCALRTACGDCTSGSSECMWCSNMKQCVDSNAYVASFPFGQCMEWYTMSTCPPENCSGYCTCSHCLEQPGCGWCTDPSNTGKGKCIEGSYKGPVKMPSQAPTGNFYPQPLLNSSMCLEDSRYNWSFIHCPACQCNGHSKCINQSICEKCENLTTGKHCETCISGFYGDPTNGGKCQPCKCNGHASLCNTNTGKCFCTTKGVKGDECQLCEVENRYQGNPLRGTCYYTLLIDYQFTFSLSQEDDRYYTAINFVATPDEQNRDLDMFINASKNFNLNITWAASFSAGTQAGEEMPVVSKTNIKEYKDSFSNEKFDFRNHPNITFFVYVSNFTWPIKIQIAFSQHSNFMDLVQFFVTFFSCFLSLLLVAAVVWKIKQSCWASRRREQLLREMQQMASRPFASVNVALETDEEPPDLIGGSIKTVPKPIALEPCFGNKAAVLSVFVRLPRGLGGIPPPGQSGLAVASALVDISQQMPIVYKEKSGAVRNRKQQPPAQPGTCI
UniProt Q9H0E9, whole entry, looked up: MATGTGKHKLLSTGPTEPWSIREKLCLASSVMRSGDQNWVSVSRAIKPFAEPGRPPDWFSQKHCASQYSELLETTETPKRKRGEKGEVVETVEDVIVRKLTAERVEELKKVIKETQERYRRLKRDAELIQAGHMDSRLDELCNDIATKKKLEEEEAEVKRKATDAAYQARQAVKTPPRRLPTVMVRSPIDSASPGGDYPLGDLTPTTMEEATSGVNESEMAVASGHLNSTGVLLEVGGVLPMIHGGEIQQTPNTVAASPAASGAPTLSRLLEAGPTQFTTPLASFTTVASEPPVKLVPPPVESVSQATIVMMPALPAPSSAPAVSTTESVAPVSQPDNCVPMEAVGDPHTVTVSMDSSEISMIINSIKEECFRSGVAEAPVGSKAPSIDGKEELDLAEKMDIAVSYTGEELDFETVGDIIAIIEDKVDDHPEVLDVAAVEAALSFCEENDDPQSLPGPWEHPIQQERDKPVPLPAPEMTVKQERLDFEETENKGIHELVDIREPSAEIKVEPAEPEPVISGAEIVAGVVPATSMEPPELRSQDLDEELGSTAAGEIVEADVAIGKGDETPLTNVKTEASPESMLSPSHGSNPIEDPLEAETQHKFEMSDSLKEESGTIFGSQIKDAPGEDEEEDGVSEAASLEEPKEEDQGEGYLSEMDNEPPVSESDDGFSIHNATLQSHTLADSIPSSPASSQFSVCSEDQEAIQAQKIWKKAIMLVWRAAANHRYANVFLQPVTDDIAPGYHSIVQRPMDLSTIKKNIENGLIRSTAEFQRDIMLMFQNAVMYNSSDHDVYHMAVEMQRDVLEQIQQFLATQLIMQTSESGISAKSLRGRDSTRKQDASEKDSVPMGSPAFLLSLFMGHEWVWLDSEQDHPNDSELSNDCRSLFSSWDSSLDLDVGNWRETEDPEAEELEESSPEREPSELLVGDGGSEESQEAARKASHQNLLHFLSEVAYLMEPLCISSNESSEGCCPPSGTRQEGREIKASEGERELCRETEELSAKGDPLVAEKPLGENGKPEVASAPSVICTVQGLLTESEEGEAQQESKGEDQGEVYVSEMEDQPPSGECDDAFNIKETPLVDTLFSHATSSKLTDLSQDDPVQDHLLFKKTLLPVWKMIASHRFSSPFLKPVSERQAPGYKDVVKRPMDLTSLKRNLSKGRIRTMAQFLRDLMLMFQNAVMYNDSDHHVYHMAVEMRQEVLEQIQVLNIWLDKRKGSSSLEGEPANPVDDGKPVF
UniProt Q9HB09: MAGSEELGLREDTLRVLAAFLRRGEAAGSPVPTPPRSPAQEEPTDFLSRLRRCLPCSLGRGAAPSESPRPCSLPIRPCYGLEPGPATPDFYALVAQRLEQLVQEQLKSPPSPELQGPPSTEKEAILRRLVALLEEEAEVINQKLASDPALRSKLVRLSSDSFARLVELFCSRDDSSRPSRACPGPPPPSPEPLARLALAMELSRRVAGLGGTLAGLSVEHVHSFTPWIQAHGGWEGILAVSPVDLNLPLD
UniProt Q9NWD9: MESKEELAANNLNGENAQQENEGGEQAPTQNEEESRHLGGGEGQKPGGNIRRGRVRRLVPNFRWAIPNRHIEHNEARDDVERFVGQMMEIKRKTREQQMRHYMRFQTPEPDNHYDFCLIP
UniProt Q9BUT1: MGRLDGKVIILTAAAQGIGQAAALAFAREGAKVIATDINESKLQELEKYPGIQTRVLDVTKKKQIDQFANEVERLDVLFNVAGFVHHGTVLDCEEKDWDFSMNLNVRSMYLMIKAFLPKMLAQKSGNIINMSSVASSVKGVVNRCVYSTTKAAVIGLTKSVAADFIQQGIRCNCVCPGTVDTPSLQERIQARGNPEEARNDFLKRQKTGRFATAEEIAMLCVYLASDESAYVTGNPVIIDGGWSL
UniProt Q6W2J9: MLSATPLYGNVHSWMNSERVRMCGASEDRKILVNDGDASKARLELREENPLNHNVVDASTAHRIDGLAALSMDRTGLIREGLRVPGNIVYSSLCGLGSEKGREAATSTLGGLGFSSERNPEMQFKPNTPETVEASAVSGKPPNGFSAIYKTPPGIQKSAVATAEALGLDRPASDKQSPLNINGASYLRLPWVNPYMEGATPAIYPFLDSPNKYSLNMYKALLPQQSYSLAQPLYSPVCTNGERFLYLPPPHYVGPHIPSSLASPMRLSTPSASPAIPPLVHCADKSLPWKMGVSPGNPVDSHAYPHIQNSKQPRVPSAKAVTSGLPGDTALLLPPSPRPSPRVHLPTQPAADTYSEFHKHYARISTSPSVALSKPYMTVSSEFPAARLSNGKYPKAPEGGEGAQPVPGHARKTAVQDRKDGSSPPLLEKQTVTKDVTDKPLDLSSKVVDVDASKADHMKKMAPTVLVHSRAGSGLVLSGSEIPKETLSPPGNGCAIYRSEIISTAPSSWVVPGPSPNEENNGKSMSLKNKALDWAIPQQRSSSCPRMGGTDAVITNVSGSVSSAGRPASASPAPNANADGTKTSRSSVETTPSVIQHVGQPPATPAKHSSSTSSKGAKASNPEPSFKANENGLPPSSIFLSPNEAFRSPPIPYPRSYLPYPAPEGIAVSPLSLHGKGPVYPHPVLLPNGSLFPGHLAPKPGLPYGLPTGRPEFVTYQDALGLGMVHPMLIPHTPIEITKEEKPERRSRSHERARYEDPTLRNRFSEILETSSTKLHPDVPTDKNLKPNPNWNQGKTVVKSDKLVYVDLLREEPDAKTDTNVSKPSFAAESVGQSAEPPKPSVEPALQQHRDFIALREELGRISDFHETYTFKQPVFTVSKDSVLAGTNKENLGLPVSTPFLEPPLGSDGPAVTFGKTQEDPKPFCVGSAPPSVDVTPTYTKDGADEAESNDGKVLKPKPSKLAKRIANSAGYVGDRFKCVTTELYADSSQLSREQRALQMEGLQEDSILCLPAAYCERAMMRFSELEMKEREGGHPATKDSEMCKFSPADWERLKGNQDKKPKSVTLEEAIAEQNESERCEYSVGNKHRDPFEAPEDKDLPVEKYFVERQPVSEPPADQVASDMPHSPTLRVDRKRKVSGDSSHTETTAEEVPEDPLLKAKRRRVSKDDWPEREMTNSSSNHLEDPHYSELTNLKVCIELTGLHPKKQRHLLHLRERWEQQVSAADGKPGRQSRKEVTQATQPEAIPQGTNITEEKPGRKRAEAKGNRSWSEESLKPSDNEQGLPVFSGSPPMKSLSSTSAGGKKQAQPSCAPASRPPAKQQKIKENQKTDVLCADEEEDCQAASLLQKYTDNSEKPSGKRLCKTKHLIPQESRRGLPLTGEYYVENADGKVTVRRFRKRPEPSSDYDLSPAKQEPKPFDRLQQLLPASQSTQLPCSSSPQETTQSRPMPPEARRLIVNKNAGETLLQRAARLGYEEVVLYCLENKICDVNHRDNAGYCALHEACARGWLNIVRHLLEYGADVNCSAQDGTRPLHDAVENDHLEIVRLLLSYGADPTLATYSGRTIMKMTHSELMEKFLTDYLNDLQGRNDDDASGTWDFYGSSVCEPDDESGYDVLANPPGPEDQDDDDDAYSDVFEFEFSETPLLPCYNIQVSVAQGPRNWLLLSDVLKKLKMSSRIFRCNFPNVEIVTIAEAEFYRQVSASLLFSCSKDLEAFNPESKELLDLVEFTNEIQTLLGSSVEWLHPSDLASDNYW
UniProt Q12983, whole entry, looked up: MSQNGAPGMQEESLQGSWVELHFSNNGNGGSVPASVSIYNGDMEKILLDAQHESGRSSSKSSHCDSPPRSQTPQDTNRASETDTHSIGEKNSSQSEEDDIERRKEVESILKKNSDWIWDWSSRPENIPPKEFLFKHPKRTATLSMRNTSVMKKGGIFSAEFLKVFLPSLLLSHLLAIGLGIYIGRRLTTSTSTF
UniProt Q16611: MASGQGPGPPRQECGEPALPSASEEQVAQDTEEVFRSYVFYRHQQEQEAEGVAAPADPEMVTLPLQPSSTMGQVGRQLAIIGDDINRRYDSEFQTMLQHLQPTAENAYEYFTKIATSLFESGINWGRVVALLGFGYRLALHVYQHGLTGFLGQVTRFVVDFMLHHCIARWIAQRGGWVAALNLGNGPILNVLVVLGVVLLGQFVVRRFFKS
UniProt Q9NP55: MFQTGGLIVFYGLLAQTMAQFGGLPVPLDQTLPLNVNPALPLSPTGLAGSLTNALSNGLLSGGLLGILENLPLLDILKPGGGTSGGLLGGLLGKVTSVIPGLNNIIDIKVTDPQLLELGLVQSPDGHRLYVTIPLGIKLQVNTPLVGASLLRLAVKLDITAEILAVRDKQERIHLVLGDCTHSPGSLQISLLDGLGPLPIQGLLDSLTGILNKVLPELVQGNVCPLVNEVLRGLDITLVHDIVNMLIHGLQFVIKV
UniProt Q9UL15: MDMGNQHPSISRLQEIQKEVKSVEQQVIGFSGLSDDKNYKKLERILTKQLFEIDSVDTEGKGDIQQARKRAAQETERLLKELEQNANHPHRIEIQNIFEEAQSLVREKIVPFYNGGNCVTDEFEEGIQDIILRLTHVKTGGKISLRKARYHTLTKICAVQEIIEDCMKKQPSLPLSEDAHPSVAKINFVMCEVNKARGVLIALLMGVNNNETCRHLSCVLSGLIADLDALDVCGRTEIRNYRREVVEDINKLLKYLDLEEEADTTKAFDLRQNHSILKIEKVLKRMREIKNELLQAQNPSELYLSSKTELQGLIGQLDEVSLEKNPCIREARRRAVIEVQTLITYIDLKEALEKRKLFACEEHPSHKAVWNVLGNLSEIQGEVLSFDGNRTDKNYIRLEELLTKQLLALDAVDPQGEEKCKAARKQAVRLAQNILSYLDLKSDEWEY

Assays:
Test in all cases: log2 fold change, soluble protein after heating vs DMSO (PISA); higher = thermal stabilisation; K562 cells, 10 uM, 30 min; active = over 0.2 and 3.5 SD of the protein, either way, in both replicates (recomputed)
bafetinib = compound: Cc1ccc(NC(=O)c2ccc(CN3CC[C@H](N(C)C)C3)c(C(F)(F)F)c2)cc1Nc1nccc(-c2cncnc2)n1 [bafetinib]
Outline: (§1)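 K562 cells at 2×10^6 cells/mL were exposed to 10 μM compound for 30 min, then aliquots were heated for 3 min across 48°C-58°C, pooled, and extracted in PBS containing 0.5% NP-40 at 4°C. The supernatant after 21,000xg for 90 min was taken as soluble protein and measured by TMTpro 16plex LC-MS/MS with channel sums equalised. Thermal stability is reported relative to control samples, with values from duplicates. Fold changes are given on a log2 scale.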

[1] = compound: Cc1cccc(CC(=O)N2CCc3c2ccc(-c2cn(C)c4ncnc(N)c24)c3F)n1
Outline: as §1

nilotinib = compound: Cc1cn(-c2cc(NC(=O)c3ccc(C)c(Nc4nccc(-c5cccnc5)n4)c3)cc(C(F)(F)F)c2)cn1 [nilotinib]
Outline: as §1

[2] = compound: Cc1nc(Nc2n[nH]c3c2CN(C(=O)N[C@H](CN(C)C)c2ccccc2)C3(C)C)c2sccc2n1
Outline: as §1

dasatinib = compound: Cc1nc(Nc2ncc(C(=O)Nc3c(C)cccc3Cl)s2)cc(N2CCN(CCO)CC2)n1 [dasatinib]
Outline: as §1

[3] = compound: Cc1ncc(-c2ccnc(Nc3ccc(S(C)(=O)=O)cc3)n2)n1C(C)C
Outline: as §1

[4] = compound: Cn1cc(-c2ccc3c(c2)CCN3C(=O)Cc2cccc(C(F)(F)F)c2)c2c(N)ncnc21
Outline: as §1

[5] = compound: Cn1cc(-c2ccc3nnc(C(F)(F)c4ccc5ncccc5c4)n3n2)cn1
Outline: as §1

tipifarnib = compound: Cn1cncc1[C@@](N)(c1ccc(Cl)cc1)c1ccc2c(c1)c(-c1cccc(Cl)c1)cc(=O)n2C [tipifarnib]
Outline: as §1

mubritinib = compound: FC(F)(F)c1ccc(/C=C/c2nc(COc3ccc(CCCCn4ccnn4)cc3)co2)cc1 [mubritinib]
Outline: as §1

Target	log2 fold change (bafetinib)	log2 fold change [1]	log2 fold change (nilotinib)	log2 fold change [2]	log2 fold change (dasatinib)	log2 fold change [3]	log2 fold change [4]	log2 fold change [5]	log2 fold change (tipifarnib)	log2 fold change (mubritinib)
BAX isoform 2 (UniProt Q07812)	inactive: -0.057	inactive: -0.032	inactive: -0.012	inactive: -0.015	inactive: 0.002	inactive: -0.024	inactive: 0.068	inactive: 0.044	inactive: 0.017	inactive: 0.038
BLOC1S3 (UniProt Q6QNY0)	inactive: -0.02	inactive: 0.006	inactive: -0.067	inactive: 0.031	inactive: -0.051	inactive: -0.022	inactive: 0.017	inactive: 0.078	inactive: -0.103	inactive: -0.027
BCLAF1 (UniProt Q9NYF8)	inactive: -0.028	inactive: 0.059	inactive: 0.02	active: -0.609	inactive: 0.081	inactive: -0.14	inactive: -0.018	inactive: -0.065	inactive: -0.005	inactive: 0.031
BIRC6 (UniProt Q9NR09)	inactive: 0.057	inactive: 0.02	inactive: -0.03	inactive: 0.015	inactive: -0.073	inactive: -0.011	inactive: 0.008	inactive: -0.011	inactive: -0.035	inactive: 0.037
BID isoform 2 (UniProt P55957)	inactive: -0.035	inactive: -0.071	inactive: 0.019	inactive: -0.006	inactive: 0.018	inactive: 0.005	inactive: 0.038	inactive: 0.007	inactive: -0.079	inactive: 0.044
BAG1 (UniProt Q99933)	inactive: -0.026	inactive: -0.019	inactive: 0.015	inactive: -0.028	inactive: -0.022	inactive: 0.021	inactive: -0.053	inactive: 0.013	inactive: -0.068	inactive: -0.035
BRD4 (UniProt O60885)	inactive: 0.067	inactive: 0.054	inactive: -0.144	inactive: 0.017	inactive: -0.094	inactive: -0.233	inactive: 0.011	inactive: -0.046	inactive: -0.09	inactive: 0.032
BCDIN3D (UniProt Q7Z5W3)	inactive: 0.036						inactive: 0.133			
ATRN (UniProt O75882)	inactive: -0.006	inactive: 0.004	inactive: 0.027	inactive: -0.055	inactive: -0.047	inactive: 0	inactive: 0.097		inactive: 0.048	inactive: -0.027
BRD8 isoform 2 (UniProt Q9H0E9)	inactive: -0.057	inactive: 0.064			inactive: -0.136		inactive: -0.022	inactive: -0.038	inactive: -0.038	
BCL2L12 (UniProt Q9HB09)	inactive: 0.006	inactive: 0.009	inactive: -0.117	inactive: -0.174	inactive: 0.088	inactive: 0.034	inactive: 0.033	inactive: 0.047	inactive: -0.015	inactive: -0.001
BIRC5 (UniProt O15392)	inactive: -0.076		inactive: 0.077	inactive: 0.023	inactive: -0.004	inactive: 0.098	inactive: -0.031	inactive: -0.038	inactive: -0.033	
B3GALNT2 (UniProt Q8NCR0)	inactive: -0.133	inactive: 0.011						inactive: -0.004	inactive: 0.306	inactive: 0.055
BEX4 (UniProt Q9NWD9)	inactive: -0.006				inactive: -0.005		inactive: -0.173			inactive: -0.093
B4GALT7 (UniProt Q9UBV7)	inactive: -0.069	inactive: -0.161			inactive: -0.044		inactive: -0.18	inactive: -0.012	inactive: -0.085	inactive: 0.073
BDH2 (UniProt Q9BUT1)	inactive: 0.114	inactive: 0.069			inactive: 0.031		inactive: 0.063	inactive: -0.032	inactive: 0.017	inactive: 0.274
ATXN7L3 isoform 2 (UniProt Q14CW9)	inactive: -0.123		inactive: 0.024	inactive: 0.043		inactive: -0.054		inactive: 0.03		inactive: 0.086
AVEN (UniProt Q9NQS1)	inactive: -0.045	inactive: -0.124			inactive: 0.027		inactive: -0.157		inactive: 0.086	
BRD2 isoform 2 (UniProt P25440)	inactive: 0.136	inactive: 0.476			inactive: -0.32		inactive: 0.11		inactive: -0.171	
ATXN2L (UniProt H3BUF6)	inactive: -0.038	inactive: 0.151	inactive: 0.151	inactive: -0.15		inactive: 0.168		inactive: -0.154	inactive: -0.072	inactive: 0.2
B4GALT4 (UniProt O60513)	inactive: -0.029	inactive: 0.243	inactive: -0.154	inactive: -0.016		inactive: 0.014		inactive: -0.141		
BCOR (UniProt Q6W2J9)	inactive: -0.309				inactive: 0.174		inactive: -0.157			
BNIP3 (UniProt Q12983)	inactive: -0.051	inactive: 0.015	inactive: -0.039	inactive: 0.002		inactive: 0.058		inactive: -0.058	inactive: 0.008	inactive: 0.094
BORCS7 (UniProt Q96B45)	inactive: 0.001	inactive: 0.09	inactive: 0.062	inactive: -0.009	inactive: 0.13	inactive: -0.019	inactive: 0.042		inactive: -0.071	inactive: 0.05
BSCL2 isoform 4 (UniProt Q96G97)	inactive: -0.225	inactive: -0.041	inactive: 0.101	inactive: 0.026	inactive: -0.14	inactive: 0.116	inactive: 0.002		inactive: 0.109	inactive: 0.133
BAK1 (UniProt Q16611)	inactive: -0.098	inactive: -0.031	inactive: 0.038	inactive: -0.011	inactive: 0.084	inactive: -0.042	inactive: 0.06		inactive: -0.114	inactive: 0.037
BPIFA1 (UniProt Q9NP55)	inactive: 0.245		inactive: -0.049	inactive: 0.019		inactive: 0.19		inactive: 0.247		inactive: -0.183
BAG5 isoform 2 (UniProt Q9UL15)	inactive: -0.052	inactive: 0.014	inactive: 0.037	inactive: -0.025		inactive: 0.069	inactive: 0.064	inactive: 0.082	inactive: -0.224	inactive: 0.048
BLVRA (UniProt C9J1E1)	inactive: 0.089	inactive: -0.075	inactive: -0.343	inactive: 0.328	inactive: 0.167	inactive: -0.201	inactive: -0.011		inactive: -0.026	inactive: -0.064
ATXN3 isoform 1 (UniProt P54252)	inactive: 0.03	inactive: 0.021	inactive: -0.038	inactive: -0.11		inactive: -0.021	inactive: 0.001	inactive: 0.033	inactive: 0.026	inactive: 0.018

For reference, part of the list above.
Target	log2 fold change (bafetinib)	log2 fold change [1]	log2 fold change (nilotinib)	log2 fold change [2]	log2 fold change (dasatinib)	log2 fold change [3]	log2 fold change [4]	log2 fold change [5]	log2 fold change (tipifarnib)	log2 fold change (mubritinib)
BAG5 isoform 2 (UniProt Q9UL15)	inactive: -0.052	inactive: 0.014	inactive: 0.037	inactive: -0.025		inactive: 0.069	inactive: 0.064	inactive: 0.082	inactive: -0.224	inactive: 0.048
BLVRA (UniProt C9J1E1)	inactive: 0.089	inactive: -0.075	inactive: -0.343	inactive: 0.328	inactive: 0.167	inactive: -0.201	inactive: -0.011		inactive: -0.026	inactive: -0.064
